{"sequences": {"note": "Chains of the proteins cited; added tags and fusions are not shown. Lines headed by an entry give the natural chain unless they say otherwise; changes in a name come on top.", "UniProt Q9EP96": "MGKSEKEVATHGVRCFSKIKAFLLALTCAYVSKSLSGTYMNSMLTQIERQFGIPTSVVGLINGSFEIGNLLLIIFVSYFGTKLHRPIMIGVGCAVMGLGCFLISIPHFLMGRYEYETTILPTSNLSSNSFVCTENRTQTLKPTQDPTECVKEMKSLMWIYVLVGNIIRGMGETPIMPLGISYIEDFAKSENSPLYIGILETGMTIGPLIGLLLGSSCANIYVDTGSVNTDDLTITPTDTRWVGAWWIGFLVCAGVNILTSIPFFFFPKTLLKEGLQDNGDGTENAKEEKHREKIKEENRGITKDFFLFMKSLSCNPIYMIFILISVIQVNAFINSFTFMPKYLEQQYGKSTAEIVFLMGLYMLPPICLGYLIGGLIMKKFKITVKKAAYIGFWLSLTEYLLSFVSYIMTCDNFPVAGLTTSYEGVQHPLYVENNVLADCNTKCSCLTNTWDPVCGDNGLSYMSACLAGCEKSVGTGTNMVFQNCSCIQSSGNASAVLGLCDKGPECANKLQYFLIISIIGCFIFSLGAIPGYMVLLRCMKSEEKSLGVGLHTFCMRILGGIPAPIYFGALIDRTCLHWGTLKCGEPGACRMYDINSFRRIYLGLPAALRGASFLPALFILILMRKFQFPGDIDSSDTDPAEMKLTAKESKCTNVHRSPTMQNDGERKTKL", "UniProt Q9DBA8": "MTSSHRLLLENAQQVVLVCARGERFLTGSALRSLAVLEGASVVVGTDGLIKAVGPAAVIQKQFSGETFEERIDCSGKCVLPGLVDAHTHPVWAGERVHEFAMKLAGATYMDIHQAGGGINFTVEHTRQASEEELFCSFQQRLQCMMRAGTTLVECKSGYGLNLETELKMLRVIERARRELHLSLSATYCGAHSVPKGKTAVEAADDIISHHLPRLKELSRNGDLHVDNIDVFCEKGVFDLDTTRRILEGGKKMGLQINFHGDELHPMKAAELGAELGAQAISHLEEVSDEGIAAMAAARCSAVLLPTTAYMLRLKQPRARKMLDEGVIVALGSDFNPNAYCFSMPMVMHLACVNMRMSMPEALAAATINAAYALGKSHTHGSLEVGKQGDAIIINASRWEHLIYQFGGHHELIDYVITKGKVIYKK", "UniProt Q9DBQ9": "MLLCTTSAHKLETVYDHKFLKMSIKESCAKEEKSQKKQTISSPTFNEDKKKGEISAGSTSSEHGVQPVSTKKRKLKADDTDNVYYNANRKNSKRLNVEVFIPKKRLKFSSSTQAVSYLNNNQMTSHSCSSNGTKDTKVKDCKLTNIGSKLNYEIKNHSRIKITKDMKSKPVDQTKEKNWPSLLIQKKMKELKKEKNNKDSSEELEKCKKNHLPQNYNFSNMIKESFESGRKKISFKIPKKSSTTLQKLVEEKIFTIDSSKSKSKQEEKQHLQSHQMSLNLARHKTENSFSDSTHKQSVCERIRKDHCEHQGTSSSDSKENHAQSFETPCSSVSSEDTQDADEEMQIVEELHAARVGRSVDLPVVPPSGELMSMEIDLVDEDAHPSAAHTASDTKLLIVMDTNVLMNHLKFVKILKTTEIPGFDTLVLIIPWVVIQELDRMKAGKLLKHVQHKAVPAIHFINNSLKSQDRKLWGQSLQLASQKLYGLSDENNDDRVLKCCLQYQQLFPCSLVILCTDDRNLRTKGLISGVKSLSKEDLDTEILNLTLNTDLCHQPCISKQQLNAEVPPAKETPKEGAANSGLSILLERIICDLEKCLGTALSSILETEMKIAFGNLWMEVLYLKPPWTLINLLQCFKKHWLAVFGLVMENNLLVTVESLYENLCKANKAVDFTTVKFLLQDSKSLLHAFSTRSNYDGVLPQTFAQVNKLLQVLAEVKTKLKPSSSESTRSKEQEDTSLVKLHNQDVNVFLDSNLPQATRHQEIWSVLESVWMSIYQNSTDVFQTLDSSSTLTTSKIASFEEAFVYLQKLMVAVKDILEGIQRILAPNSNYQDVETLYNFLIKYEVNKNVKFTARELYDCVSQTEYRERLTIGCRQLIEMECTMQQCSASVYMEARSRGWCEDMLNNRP", "UniProt Q9DB27": "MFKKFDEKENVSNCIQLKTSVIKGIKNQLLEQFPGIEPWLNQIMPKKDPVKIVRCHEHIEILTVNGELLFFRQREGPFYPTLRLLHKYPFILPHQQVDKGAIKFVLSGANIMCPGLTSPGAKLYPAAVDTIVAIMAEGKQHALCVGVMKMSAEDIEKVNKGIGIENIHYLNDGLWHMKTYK", "UniProt Q9DBS1": "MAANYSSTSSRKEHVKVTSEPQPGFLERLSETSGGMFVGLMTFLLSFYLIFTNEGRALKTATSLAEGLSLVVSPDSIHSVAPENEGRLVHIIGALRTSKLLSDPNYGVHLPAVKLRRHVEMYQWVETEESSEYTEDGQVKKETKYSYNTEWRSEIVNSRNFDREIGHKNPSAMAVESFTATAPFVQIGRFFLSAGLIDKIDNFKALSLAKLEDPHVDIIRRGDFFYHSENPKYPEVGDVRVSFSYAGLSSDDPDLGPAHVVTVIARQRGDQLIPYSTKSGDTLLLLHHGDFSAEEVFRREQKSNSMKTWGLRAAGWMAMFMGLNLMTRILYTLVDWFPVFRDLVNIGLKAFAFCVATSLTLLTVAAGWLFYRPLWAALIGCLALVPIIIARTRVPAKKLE", "UniProt Q9DCG2": "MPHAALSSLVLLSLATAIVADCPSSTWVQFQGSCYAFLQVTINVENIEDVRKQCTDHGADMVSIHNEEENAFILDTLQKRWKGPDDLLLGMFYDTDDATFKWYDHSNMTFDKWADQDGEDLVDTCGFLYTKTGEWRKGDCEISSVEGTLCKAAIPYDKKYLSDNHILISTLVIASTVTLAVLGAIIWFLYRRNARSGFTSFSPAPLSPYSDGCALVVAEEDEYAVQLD", "UniProt Q9DCA5": "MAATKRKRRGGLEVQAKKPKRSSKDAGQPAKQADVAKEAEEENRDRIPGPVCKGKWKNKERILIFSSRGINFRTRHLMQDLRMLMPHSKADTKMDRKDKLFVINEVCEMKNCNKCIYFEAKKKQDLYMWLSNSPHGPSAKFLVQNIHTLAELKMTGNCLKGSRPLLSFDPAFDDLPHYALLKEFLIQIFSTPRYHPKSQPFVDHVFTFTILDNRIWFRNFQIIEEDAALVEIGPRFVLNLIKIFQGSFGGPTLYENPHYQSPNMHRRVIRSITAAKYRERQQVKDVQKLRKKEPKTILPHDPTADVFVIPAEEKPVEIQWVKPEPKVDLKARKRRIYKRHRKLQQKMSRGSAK", "UniProt Q9ERL9": "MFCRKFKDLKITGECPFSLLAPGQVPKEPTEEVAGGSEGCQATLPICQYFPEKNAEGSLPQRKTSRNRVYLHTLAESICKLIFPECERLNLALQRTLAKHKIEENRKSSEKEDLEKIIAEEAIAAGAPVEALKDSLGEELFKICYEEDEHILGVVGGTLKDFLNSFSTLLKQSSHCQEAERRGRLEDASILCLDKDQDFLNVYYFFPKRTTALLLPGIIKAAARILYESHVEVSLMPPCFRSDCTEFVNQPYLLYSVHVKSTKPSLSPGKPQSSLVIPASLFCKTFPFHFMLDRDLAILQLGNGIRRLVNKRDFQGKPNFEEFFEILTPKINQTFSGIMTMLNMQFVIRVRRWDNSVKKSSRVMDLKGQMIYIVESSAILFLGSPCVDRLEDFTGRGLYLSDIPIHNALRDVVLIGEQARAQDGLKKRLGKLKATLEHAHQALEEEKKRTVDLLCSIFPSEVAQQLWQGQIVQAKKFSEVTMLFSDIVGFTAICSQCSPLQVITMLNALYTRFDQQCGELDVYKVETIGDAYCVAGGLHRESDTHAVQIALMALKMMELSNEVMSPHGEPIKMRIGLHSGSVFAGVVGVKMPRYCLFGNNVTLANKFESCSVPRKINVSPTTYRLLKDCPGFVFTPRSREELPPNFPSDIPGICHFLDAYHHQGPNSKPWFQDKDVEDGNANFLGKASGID"}, "source": "the supplement of paper PMC12819154", "about": "“High-throughput peptide-centric local stability assay extends protein–ligand identification to membrane proteins, tissues and bacteria” (Nature Structural & Molecular Biology, 2025)", "note": "The list shows a part of the results. Small differences around the control level are noise.", "data": [{"compound": "CN[C@@H]1C[C@H]2O[C@@](C)([C@@H]1OC)n1c3ccccc3c3c4c(c5c6ccccc6n2c5c31)C(=O)NC4 [staurosporine]", "assay": "log2 fold change of tryptic peptide abundance, ligand vs vehicle (limited proteolysis) (log2 ratio); higher = more trypsin-susceptible (destabilized)", "settings": "ligand concentration: 20 uM; sample: mouse liver crude lysate; replicate design: treated separately", "values": [{"target": "UniProt Q9EP96 (peptide sequence: SPTMQNDGER, peptide start residue: 657)", "log2 fold change": -0.148}, {"target": "UniProt Q9DBA8 (peptide sequence: NGDLHVDNIDVFCEK, peptide start residue: 221)", "log2 fold change": -0.147}, {"target": "UniProt Q9DBQ9 (peptide sequence: QHLQSHQMSLNLAR, peptide start residue: 269)", "log2 fold change": 0.593}, {"target": "UniProt Q9DB27 (peptide sequence: LLHKYPFILPHQQVDKGAIK, peptide start residue: 84)", "log2 fold change": -0.288}, {"target": "UniProt Q9DBS1 (peptide sequence: AANYSSTSSRK, peptide start residue: 2)", "log2 fold change": -0.119}, {"target": "UniProt Q9DCG2 (peptide sequence: KGDCEISSVEGTLCK, peptide start residue: 137)", "log2 fold change": 0.597}, {"target": "UniProt Q9DCU6 (peptide sequence: DSAGLLDPVLRK, peptide start residue: 39)", "log2 fold change": 0.524}, {"target": "UniProt Q9DCA5 (peptide sequence: RGGLEVQAK, peptide start residue: 9)", "log2 fold change": -0.359}, {"target": "UniProt Q9ERL9 (peptide sequence: NAEGSLPQR, peptide start residue: 54)", "log2 fold change": -0.293}]}]}
